# US9394341 (dated 2016)
# Assay: general procedure: Fmoc solid-phase peptide synthesis; Rink MBHA resin
# Conditions: whole synthesis, scale of the general procedure 0.5 mmol, acetate, one disulfide bridge, sequence written open
substance,measurement,setting,value
Mpr-Harg-Gly-Asp-Trp-Pro-Cys-NH2 (X—Y-Trp-Pro-Cys),final purity (method not given),,99.8%
same,isolated yield,total yield,61.3%
